In assay [1] the target is T1, (StrepII)2-TEV-tagged TIN2, subunit of recombinant shelterin (UniProt Q9BSI4).
T1 sequence: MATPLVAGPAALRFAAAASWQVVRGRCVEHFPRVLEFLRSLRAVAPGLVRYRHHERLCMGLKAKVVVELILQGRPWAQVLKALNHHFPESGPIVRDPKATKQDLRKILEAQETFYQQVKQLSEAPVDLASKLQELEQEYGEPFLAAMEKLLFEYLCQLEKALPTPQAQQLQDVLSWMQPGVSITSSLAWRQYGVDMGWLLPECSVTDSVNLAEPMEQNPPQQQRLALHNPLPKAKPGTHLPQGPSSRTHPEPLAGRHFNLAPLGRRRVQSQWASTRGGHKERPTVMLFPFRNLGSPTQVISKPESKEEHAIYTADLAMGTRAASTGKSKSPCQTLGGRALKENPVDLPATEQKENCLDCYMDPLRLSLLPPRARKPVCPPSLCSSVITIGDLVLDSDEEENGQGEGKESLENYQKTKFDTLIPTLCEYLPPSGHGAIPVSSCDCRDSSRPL
Briefly: co-purification (StrepTrap affinity, then SEC); six shelterin subunits co-expressed in Sf9 from one construct; captured by (StrepII)2-TIN2 on StrepTrap, eluted with desthiobiotin, several rounds of Superose 6 Increase SEC; 50 mM HEPES pH 8.0, 300 mM NaCl.

Assay [2] deals with T1, (StrepII)2-TEV-tagged TIN2, subunit of recombinant shelterin. Briefly: cross-linking; SEC-purified shelterin 0.9 µM with 0-300 µM compound 40 or control compound 60, 0.075% glutaraldehyde 25 min, SDS-PAGE and Western blots for TRF1, TRF2 and TIN2; both purified. A general note: In western blotting, separated proteins are transferred to a membrane and probed.

No constants are given. Whether binding was seen depends on the method and setting. Some entries that bind do so weakly or less than the wild type. Sequences can lack the tags named with a protein.

In article PMC12635197, “Discovery of first-in-class inhibitors of the TRF1:TIN2 protein:protein interaction by fragment screening” (Scientific Reports, 2025) one finds binding data, which are given here for five molecules.

B1: TPP1, subunit of recombinant shelterin (natural protein, UniProt Q96AP0 1-458, looked up)
chain: MAGSGRLVLRPWIRELILGSETPSSPRAGQLLEVLQDAEAAVAGPSHAPDTSDVGATLLVSDGTHSVRCLVTREALDTSDWEEKEFGFRGTEGRLLLLQDCGVHVQVAEGGAPAEFYLQVDRFSLLPTEQPRLRVPGCNQDLDVQKKLYDCLEEHLSESTSSNAGLSLSQLLDEMREDQEHQGALVCLAESCLTLEGPCTAPPVTHWAASRCKATGEAVYTVPSSMLCISENDQLILSSLGPCQRTQGPELPPPDPALQDLSLTLIASPPSSPSSSGTPALPGHMSSEESGTSISLLPALSLAAPDPGQRSSSQPSPAICSAPATLTPRSPHASRTPSSPLQSCTPSLSPRSHVPSPHQALVTRPQKPSLEFKEFVGLPCKNRPPFPRTGATRGAQEPCSVWEPPKRHRDGSAFQYEYEPPCTSLCARVQAVRLPPQLMAWALHFLMDAQPGSEPTPM
notes: TPP1 (shelterin subunit), gene BC016904.1, codon-optimised
In the case of B1, in assay [1], the binding entry is recorded as “binds”.

B2: TRF2 (telomeric repeat-binding factor 2), subunit of recombinant shelterin (natural protein, UniProt Q15554-3 1-542, looked up)
chain: MAAGAGTAGPASGPGVVRDPAASQPRKRPGREGGEGARRSDTMAGGGGSSDGSGRAAGRRASRSSGRARRGRHEPGLGGPAERGAGEARLEEAVNRWVLKFYFHEALRAFRGSRYGDFRQIRDIMQALLVRPLGKEHTVSRLLRVMQCLSRIEEGENLDCSFDMEAELTPLESAINVLEMIKTEFTLTEAVVESSRKLVKEAAVIICIKNKEFEKASKILKKHMSKDPTTQKLRNDLLNIIREKNLAHPVIQNFSYETFQQKMLRFLESHLDDAEPYLLTMAKKALKSESAASSTGKEDKQPAPGPVEKPPREPARQLRNPPTTIGMMTLKAAFKTLSGAQDSEAAFAKLDQKDLVLPTQALPASPALKNKRPRKDENESSAPADGEGGSELQPKNKRMTISRLVLEEDSQSTEPSAGLNSSQEAASAPPSKPTVLNQPLPGEKNPKVPKGKWNSSNGVEEKETWVEEDELFQVQAAPDEDSTTNITKKQKWTVEESEWVKAGVQKYGEGNWAAISKNYPFVNRTAVMIKDRWRTMKRLGMN
notes: TRF2, gene NM_005652.4, codon-optimised
As to B2, the binding result in assay [1] and in assay [2] was “binds” throughout.

B3: POT1, subunit of recombinant shelterin (natural protein, UniProt Q9NUX5-1 1-634, looked up)
chain: MSLVPATNYIYTPLNQLKGGTIVNVYGVVKFFKPPYLSKGTDYCSVVTIVDQTNVKLTCLLFSGNYEALPIIYKNGDIVRFHRLKIQVYKKETQGITSSGFASLTFEGTLGAPIIPRTSSKYFNFTTEDHKMVEALRVWASTHMSPSWTLLKLCDVQPMQYFDLTCQLLGKAEVDGASFLLKVWDGTRTPFPSWRVLIQDLVLEGDLSHIHRLQNLTIDILVYDNHVHVARSLKVGSFLRIYSLHTKLQSMNSENQTMLSLEFHLHGGTSYGRGIRVLPESNSDVDQLKKDLESANLTANQHSDVICQSEPDDSFPSSGSVSLYEVERCQQLSATILTDHQYLERTPLCAILKQKAPQQYRIRAKLRSYKPRRLFQSVKLHCPKCHLLQEVPHEGDLDIIFQDGATKTPDVKLQNTSLYDSKIWTTKNQKGRKVAVHFVKNNGILPLSNECLLLIEGGTLSEICKLSNKFNSVIPVRSGHEDLELLDLSAPFLIQGTIHHYGCKQCSSLRSIQNLNSLVDKTSWIPSSVAEALGIVPLQYVFVMTFTLDDGTGVLEAYLMDSDKFFQIPASEVLMDDDLQKSVDMIMDMFCPPGIKIDAYPWLECFIKSYNVTNGTDNQICYQIFDTTVAEDVI
notes: POT1 (shelterin subunit), gene NM_015450, codon-optimised
Regarding B3, in assay [1], the binding result is on record as “binds”.

B4: TRF1 (telomeric repeat-binding factor 1), full length, subunit of recombinant shelterin (natural protein, human, UniProt P54274-1 1-439, looked up)
chain: MAEDVSSAAPSPRGCADGRDADPTEEQMAETERNDEEQFECQELLECQVQVGAPEEEEEEEEDAGLVAEAEAVAAGWMLDFLCLSLCRAFRDGRSEDFRRTRNSAEAIIHGLSSLTACQLRTIYICQFLTRIAAGKTLDAQFENDERITPLESALMIWGSIEKEHDKLHEEIQNLIKIQAIAVCMENGNFKEAEEVFERIFGDPNSHMPFKSKLLMIISQKDTFHSFFQHFSYNHMMEKIKSYVNYVLSEKSSTFLMKAAAKVVESKRTRTITSQDKPSGNDVEMETEANLDTRKSVSDKQSAVTESSEGTVSLLRSHKNLFLSKLQHGTQQQDLNKKERRVGTPQSTKKKKESRRATESRIPVSKSQPVTPEKHRARKRQAWLWEEDKNLRSGVRKYGEGNWSKILLHYKFNNRTSVMLKDRWRTMKKLKLISSDSED
notes: TRF1, gene NM_017489.2, codon-optimised; the UniProt identifier is printed for the TRFH construct of the same protein; Further details of the shelterin construct 'to be reported elsewhere'; also called full-length TRF1
Turning to B4, the binding entry in assay [1] and in assay [2] was “binds” throughout.

B5: RAP1, subunit of recombinant shelterin (natural protein, UniProt Q9NYB0 1-399, looked up)
chain: MAEAMDLGKDPNGPTHSSTLFVRDDGSSMSFYVRPSPAKRRLSTLILHGGGTVCRVQEPGAVLLAQPGEALAEASGDFISTQYILDCVERNERLELEAYRLGPASAADTGSEAKPGALAEGAAEPEPQRHAGRIAFTDADDVAILTYVKENARSPSSVTGNALWKAMEKSSLTQHSWQSLKDRYLKHLRGQEHKYLLGDAPVSPSSQKLKRKAEEDPEAADSGEPQNKRTPDLPEEEYVKEEIQENEEAVKKMLVEATREFEEVVVDESPPDFEIHITMCDDDPPTPEEDSETQPDEEEEEEEEKVSQPEVGAAIKIIRQLMEKFNLDLSTVTQAFLKNSGELEATSAFLASGQRADGYPIWSRQDDIDLQKDDEDTREALVKKFGAQNVARRIEFRKK
notes: RAP1 (TRF2-associated shelterin subunit), gene NM_018975.3, codon-optimised
Turning to B5, in assay [1], the binding result is “binds”.
